Source: article PMC6949223
No constants are given. Whether binding was seen depends on the method and setting. In cells and extracts the contact can be indirect. A yes stands for co-enrichment or nearness to the bait. Other partners may have been found.

The chains behind the UniProt entries cited, without tags or fusion partners.
UniProt Q9H5K3: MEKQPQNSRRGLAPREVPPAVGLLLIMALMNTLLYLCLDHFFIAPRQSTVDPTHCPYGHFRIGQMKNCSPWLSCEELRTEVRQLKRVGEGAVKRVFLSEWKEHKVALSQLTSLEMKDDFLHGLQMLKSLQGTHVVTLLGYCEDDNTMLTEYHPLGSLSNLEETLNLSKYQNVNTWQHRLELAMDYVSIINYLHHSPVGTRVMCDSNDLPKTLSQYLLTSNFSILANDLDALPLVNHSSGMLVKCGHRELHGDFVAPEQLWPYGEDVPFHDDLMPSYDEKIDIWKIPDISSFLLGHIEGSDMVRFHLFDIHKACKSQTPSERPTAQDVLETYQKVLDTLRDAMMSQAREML

Biological target: SGK196 as immunoprecipitated for mass spectrometry (human) (UniProt Q9H5K3)
Test: affinity purification with mass spectrometry; SGK196 immunoprecipitation from cell lysate (50 mM Tris-HCl pH 7.4, 150 mM NaCl, 1% NP-40, 0.1% SDS, 1 mM EDTA; Protein A/G magnetic beads, overnight), SDS-PAGE, mass spectrometry; cells not given

binding: binds
B1: RPN1 (ribophorin I) found in the SGK196 precipitates (protein, UniProt P04843 24-607)
chain: ASSEAPPLINEDVKRTVDLSSHLAKVTAEVVLAHLGGGSTSRATSFLLALEPELEARLAHLGVQVKGEDEEENNLEVRETKIKGKSGRFFTVKLPVALDPGAKISVIVETVYTHVLHPYPTQITQSEKQFVVFEGNHYFYSPYPTKTQTMRVKLASRNVESYTKLGNPTRSEDLLDYGPFRDVPAYSQDTFKVHYENNSPFLTITSMTRVIEVSHWGNIAVEENVDLKHTGAVLKGPFSRYDYQRQPDSGISSIRSFKTILPAAAQDVYYRDEIGNVSTSHLLILDDSVEMEIRPRFPLFGGWKTHYIVGYNLPSYEYLYNLGDQYALKMRFVDHVFDEQVIDSLTVKIILPEGAKNIEIDSPYEISRAPDELHYTYLDTFGRPVIVAYKKNLVEQHIQDIVVHYTFNKVLMLQEPLLVVAAFYILFFTVIIYVRLDFSITKDPAAEARMKVACITEQVLTLVNKRIGLYRHFDETVNRYKQSRDISTLNSGKKSLETEHKALTSEIALLQSRLKTEGSDLCDRVSEMQKLDAQVKELVLKSAVEAERLVAGKLKKDTYIENEKLISGKRQELVTKIDHILDAL
